Measurements: patent publication US20260126382A1, “INTELLIGENT NIR II PHOTOTHERMAL AND COLORIMETRIC SENSING TECHNOLOGY” (Nanyang Technological University, priority 2022, published 2026)

Tested on: myrosinase (Myr)
Experiment: Effect of interfering substances (metal ions, small molecules, amino acids, EDTA) on the Myr test system
Type: biochemical
Details: for increase of temperature (ΔTemp) of Myr test system: 1064 nm laser 1 W/cm2, 5 min; for absorbance at 1064 nm of the Myr test system: added to system containing Sin, GOx, TMB and AuNPs (EDTA: after Cu^2+)
Method: For Myr detection, Sin (2.5 mM, 30 μL) and GOx (5 mg/mL, 10 μL, according to previous literature (Jiang, C. et al., RSC Adv. 2017, 7, 44463-44469)) were mixed with different concentrations of Myr first, and reacted at 37° C. for 30 min to generate H2O2. Then, an acetate buffer containing TMB and AuNPs was added into the aforementioned solution, incubated at 45° C. for 25 min, and cooled to room temperature. Afterward, the solution was used for the analysis of Myr enzyme activity.
For the anti-interference experiments discussed below, Sin (2.5 mM, 30 μL) and GOx (5 mg/mL, 10 μL) were mixed with different interfering substances first and reacted at 37° C. for 30 min. Then, acetate buffer containing TMB and AuNPs were added into the above solution, incubated at 45° C. for 25 min, and cooled to room temperature, and afterwards, the solution was used for photothermal and colorimetric analysis.

Row | SMILES | increase of temperature (ΔTemp) of Myr test system (Cu^2+ added to Sin+Myr+GOx+TMB+AuNPs, 22.1° C. without Cu^2+) [°C] | absorbance at 1064 nm of the Myr test system | increase of temperature (ΔTemp) of Myr test system (EDTA added to the system containing Cu^2+) [°C]
1 | [Cu+2] [Cu^2+] | 3.9 | declined dramatically | 
2 | O=C(O)CN(CCN(CC(=O)O)CC(=O)O)CC(=O)O [EDTA, ethylenediaminetetraacetic acid] |  | recovered significantly | 19
